Here are results for one substance from paper PMC6942356.

These are yes or no findings as the source states them, for the method shown. In cells and extracts the contact can be indirect. Some entries that bind do so weakly or less than the wild type.

Assay [1] addresses T1, TSPAN9 (endogenous, 5-FU-resistant gastric cancer cells) (human (endogenous in AGS/R)) (UniProt O75954).
T1 sequence: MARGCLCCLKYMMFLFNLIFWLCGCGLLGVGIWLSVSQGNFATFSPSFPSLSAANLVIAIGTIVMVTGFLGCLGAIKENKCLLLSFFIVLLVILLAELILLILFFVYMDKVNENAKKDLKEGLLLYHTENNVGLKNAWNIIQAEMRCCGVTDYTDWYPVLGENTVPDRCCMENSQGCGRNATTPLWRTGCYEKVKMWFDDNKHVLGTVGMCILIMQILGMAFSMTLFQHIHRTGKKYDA
As to the kind of experiment: co-IP; lysates of AGS/R cells stimulated with 5-FU; immunoprecipitation with anti-TSPAN9 on Protein A agarose, immunoblot with anti-p55; endogenous proteins. On the technique in general: A western blot detects proteins with antibodies after separation by electrophoresis.

In another assay the target is T2, TSPAN9 (WT), transfected (UniProt O75954).
T2 sequence: T1 sequence
Put plainly: co-IP; AGS cells transfected with TSPAN9 (WT) or TSPAN9 (Y153D); lysates immunoprecipitated with antibodies to p55 and TSPAN9, Western blot.

Regarding “PIK3R3 (p55), regulatory subunit of PI3K (from UniProt Q92569 1-461)”, the binding result in assay [1] is “binds”; in the assay with TSPAN9 (WT), transfected, “binds”.
